The supplement of paper PMC10849652
The list shows a part of the results.

By UniProt entry, the sequences of proteins in these tests, tags left out. Where a name states a change or a piece, a line headed by the entry shows the natural chain unless it says otherwise.
UniProt Q9NYJ8: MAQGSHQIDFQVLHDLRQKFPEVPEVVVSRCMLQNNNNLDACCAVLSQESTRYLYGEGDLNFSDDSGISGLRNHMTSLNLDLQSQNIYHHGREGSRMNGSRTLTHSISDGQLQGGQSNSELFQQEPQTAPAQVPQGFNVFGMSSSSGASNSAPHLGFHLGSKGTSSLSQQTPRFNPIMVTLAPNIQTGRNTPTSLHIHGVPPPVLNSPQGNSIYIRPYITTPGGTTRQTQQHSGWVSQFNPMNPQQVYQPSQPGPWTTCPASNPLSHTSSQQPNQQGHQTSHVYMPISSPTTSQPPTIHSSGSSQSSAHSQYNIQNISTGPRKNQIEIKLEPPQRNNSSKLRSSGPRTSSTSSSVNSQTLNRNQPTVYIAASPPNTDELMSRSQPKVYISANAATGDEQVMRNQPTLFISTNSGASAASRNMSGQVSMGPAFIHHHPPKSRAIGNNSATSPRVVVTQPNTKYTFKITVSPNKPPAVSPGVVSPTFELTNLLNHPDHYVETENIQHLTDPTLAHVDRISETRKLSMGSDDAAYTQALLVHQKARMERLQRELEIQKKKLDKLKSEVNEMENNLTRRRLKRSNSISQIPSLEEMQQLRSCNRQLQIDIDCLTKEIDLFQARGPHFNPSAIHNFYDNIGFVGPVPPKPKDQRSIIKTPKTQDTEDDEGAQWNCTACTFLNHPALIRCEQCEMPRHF
UniProt Q16514: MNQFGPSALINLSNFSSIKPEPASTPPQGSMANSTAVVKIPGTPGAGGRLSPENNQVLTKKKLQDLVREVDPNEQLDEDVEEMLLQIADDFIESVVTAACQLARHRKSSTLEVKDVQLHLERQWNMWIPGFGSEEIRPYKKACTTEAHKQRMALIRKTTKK
UniProt Q13033: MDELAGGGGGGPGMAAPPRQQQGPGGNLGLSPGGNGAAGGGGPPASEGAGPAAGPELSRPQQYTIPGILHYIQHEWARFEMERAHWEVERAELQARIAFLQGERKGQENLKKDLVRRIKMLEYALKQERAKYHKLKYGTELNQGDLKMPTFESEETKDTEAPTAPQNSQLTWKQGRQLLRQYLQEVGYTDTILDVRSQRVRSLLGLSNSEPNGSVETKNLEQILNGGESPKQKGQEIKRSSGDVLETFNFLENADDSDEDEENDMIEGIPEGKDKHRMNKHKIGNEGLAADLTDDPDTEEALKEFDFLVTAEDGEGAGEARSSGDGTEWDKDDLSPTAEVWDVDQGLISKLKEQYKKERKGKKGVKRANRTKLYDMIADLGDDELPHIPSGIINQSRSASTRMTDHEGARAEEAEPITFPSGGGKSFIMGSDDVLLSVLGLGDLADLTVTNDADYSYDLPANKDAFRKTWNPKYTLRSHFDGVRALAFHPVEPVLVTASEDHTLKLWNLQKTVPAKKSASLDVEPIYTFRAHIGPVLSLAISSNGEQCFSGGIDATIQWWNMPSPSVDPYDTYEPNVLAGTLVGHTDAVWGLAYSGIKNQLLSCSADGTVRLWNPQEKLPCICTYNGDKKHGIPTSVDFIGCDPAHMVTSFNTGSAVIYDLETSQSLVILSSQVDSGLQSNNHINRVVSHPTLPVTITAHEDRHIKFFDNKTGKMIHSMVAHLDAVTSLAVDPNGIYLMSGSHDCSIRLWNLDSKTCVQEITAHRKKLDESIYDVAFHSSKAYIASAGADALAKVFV
UniProt Q8NBJ7: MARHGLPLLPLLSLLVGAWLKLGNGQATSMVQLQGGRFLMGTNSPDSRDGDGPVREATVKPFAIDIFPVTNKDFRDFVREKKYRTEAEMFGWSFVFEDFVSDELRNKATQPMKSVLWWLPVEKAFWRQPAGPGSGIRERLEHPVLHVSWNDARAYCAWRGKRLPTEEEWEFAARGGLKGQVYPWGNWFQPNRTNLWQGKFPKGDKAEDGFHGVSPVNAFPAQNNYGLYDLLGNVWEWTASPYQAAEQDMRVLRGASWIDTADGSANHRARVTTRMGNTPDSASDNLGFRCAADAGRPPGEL
UniProt Q7Z422: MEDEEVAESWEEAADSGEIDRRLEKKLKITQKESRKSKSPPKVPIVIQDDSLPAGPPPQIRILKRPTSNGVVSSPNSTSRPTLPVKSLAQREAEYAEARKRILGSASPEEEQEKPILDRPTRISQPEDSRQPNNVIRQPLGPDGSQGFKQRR
UniProt O15400: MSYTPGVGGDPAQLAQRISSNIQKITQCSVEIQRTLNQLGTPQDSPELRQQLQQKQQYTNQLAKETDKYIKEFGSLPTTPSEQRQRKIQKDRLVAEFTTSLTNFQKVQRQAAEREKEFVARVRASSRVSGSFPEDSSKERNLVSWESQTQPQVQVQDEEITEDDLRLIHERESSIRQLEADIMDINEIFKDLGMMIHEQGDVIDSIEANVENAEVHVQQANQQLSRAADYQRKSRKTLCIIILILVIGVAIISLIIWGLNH
UniProt Q9H7L9: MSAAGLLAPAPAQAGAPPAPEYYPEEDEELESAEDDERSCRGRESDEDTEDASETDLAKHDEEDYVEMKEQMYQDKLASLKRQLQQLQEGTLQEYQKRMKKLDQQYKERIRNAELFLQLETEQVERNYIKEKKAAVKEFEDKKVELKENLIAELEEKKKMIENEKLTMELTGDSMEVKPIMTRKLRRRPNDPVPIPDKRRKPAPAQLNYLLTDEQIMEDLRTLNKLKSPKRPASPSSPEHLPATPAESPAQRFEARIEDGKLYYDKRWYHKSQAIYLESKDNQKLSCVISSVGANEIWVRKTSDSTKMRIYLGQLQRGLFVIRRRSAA
UniProt Q15750: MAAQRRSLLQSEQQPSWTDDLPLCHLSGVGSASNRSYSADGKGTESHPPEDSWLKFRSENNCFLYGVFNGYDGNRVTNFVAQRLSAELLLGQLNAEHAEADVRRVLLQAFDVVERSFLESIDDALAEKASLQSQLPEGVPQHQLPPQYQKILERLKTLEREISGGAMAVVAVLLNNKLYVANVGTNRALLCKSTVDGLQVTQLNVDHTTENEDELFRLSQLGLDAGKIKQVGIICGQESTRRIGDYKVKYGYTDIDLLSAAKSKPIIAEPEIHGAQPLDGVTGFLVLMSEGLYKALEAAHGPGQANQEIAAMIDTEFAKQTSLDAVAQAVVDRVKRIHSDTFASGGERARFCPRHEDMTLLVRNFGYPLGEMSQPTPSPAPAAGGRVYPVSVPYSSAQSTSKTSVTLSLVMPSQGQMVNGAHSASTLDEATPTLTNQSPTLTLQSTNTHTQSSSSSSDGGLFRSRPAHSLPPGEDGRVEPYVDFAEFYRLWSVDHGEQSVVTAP
UniProt Q9UNK0: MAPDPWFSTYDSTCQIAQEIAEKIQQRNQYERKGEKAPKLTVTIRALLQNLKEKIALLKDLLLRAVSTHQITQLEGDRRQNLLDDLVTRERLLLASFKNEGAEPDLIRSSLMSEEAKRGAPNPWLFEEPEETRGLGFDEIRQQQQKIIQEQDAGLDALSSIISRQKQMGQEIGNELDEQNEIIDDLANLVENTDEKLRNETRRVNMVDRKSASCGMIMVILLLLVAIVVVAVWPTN
UniProt Q92750: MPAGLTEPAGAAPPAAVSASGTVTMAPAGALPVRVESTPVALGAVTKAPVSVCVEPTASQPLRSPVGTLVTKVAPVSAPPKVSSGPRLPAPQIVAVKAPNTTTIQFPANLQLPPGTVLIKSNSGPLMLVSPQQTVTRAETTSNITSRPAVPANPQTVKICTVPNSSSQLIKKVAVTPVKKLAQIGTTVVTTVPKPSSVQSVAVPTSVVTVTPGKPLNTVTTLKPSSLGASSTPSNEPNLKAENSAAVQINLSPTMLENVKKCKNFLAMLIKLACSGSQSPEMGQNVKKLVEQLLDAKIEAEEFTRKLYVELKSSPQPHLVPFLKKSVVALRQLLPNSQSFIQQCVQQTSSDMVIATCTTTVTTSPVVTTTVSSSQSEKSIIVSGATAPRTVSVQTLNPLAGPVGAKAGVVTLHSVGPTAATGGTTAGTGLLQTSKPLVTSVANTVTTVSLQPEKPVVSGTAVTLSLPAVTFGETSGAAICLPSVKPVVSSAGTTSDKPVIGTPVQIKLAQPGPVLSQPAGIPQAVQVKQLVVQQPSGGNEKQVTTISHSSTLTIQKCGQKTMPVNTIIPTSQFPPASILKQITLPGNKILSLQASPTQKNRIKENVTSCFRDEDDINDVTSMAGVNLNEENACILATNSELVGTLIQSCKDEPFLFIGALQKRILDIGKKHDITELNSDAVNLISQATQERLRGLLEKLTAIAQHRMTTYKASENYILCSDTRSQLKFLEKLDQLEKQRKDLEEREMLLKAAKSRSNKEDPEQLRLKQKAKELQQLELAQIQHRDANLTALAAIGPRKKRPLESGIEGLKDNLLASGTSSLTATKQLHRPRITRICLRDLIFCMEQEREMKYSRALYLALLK
UniProt O60506: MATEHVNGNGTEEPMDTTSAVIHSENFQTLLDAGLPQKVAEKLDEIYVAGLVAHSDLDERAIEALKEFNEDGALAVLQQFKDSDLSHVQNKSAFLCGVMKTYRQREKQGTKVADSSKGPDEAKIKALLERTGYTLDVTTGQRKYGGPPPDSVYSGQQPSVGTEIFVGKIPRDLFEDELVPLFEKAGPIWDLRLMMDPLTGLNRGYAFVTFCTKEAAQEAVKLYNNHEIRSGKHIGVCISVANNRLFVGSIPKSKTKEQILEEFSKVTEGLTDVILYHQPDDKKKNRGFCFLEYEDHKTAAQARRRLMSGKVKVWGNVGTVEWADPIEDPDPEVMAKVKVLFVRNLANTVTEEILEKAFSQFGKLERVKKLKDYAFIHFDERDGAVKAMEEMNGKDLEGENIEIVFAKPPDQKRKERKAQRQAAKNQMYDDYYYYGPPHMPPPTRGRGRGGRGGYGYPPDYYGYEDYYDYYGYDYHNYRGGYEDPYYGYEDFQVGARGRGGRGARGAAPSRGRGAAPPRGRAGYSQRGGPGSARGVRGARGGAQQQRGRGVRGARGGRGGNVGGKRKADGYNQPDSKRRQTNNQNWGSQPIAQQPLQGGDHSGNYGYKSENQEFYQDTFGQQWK
UniProt Q9UH65: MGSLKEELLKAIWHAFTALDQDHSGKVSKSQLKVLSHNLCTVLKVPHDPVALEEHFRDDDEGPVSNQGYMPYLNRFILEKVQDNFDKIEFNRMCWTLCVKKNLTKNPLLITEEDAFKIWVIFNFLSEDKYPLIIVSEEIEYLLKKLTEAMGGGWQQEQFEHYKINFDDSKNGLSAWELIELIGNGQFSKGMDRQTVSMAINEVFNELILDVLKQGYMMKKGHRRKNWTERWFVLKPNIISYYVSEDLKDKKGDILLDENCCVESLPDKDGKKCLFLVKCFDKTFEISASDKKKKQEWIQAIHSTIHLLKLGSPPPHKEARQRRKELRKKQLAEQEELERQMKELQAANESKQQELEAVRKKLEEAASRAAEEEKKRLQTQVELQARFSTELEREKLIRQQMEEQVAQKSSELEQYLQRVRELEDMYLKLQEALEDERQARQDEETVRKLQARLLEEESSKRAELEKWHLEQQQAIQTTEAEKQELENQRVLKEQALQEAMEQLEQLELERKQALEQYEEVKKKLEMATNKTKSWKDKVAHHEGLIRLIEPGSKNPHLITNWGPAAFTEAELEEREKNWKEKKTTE
UniProt Q12846: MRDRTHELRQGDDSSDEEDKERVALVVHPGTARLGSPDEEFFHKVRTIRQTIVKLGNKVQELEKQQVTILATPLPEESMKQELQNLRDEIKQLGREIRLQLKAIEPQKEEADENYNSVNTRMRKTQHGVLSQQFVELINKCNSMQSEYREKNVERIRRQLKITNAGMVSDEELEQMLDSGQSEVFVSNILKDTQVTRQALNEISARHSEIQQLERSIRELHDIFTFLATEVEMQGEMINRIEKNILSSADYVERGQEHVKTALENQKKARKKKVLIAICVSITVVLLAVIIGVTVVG
UniProt P61956, whole entry, looked up: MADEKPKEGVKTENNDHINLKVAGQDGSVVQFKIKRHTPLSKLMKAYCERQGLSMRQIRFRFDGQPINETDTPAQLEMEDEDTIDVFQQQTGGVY
UniProt Q13277: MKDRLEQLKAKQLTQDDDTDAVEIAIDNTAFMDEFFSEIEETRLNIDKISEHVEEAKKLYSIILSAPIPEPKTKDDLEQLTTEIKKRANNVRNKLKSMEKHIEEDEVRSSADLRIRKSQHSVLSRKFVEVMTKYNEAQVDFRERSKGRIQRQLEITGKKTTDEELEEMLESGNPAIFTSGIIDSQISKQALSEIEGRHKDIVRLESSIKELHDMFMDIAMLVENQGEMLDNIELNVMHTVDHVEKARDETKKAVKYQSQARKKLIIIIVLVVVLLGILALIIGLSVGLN
UniProt P56962: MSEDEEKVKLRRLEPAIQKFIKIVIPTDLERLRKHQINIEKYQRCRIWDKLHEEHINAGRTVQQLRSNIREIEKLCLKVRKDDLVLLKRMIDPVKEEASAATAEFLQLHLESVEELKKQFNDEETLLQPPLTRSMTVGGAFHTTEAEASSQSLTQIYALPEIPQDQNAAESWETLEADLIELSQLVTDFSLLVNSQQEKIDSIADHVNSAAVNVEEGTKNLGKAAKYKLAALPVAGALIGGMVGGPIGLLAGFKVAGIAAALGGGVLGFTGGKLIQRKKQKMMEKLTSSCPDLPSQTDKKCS

What was measured:
Test in all cases: log2 fold change, soluble protein after heating vs DMSO (PISA); higher = thermal stabilisation; K562 lysate, 10 uM; active = over 0.2 and 3.5 SD of the protein, either way, in both replicates (recomputed)
alvocidib = compound: CN1CC[C@H](c2c(O)cc(O)c3c(=O)cc(-c4ccccc4Cl)oc23)[C@H](O)C1 [alvocidib]
Outline: (§1)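 K562 pellets were dounce-homogenised in PBS pH 7.4 with 1 mM MgCl2, and the crude extract at 1 mg/mL protein was treated with 10 μM compound for 30 min. Aliquots were heated for 3 min across 48°C-58°C, pooled, and brought to 0.5% NP-40 at 4°C; soluble protein was the supernatant after 21,000xg for 90 min. Soluble protein was quantified by TMTpro 16plex LC-MS/MS with channel sums equalised, and reported as log2 fold change in thermal stability against DMSO controls, with values from duplicates.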

Tubastatin A = compound: CN1CCc2c(c3ccccc3n2Cc2ccc(C(=O)NO)cc2)C1 [Tubastatin A]
Outline: as §1

[1] = compound: CNC(=O)C1=CC=CC=C1NC2=NC(=NC=C2Cl)NC3=C(C=C(C=C3)N4CCOCC4)OC
Outline: as §1

defactinib = compound: CNC(=O)c1ccc(Nc2ncc(C(F)(F)F)c(NCc3nccnc3N(C)S(C)(=O)=O)n2)cc1 [defactinib]
Outline: as §1

[2] = compound: CNc1nc(-c2ccc3c(N)n[nH]c3c2)cc(N2C[C@@H](C(=O)NC3CCCCC3)CC[C@H]2C)n1
Outline: as §1

encorafenib = compound: COC(=O)N[C@@H](C)CNc1nccc(-c2cn(C(C)C)nc2-c2cc(Cl)cc(NS(C)(=O)=O)c2F)n1 [encorafenib]
Outline: as §1

[3] = compound: COC(=O)[C@H](CCSC)NC(=O)C1=C(C=C(C=C1)NC[C@H](CS)N)C2=CC=CC=C2
Outline: as §1

alisertib = compound: COc1cc(Nc2ncc3c(n2)-c2ccc(Cl)cc2C(c2c(F)cccc2OC)=NC3)ccc1C(=O)O [alisertib]
Outline: as §1

[4] = compound: COc1cc2nc(-c3cc(F)ccc3O)nc(N[C@@H]3CNC[C@H]3C(C)(C)O)c2cc1OC
Outline: as §1

gefitinib = compound: COc1cc2ncnc(Nc3ccc(F)c(Cl)c3)c2cc1OCCCN1CCOCC1 [gefitinib]
Outline: as §1

| Target | log2 fold change (alvocidib) | log2 fold change (Tubastatin A) | log2 fold change [1] | log2 fold change (defactinib) | log2 fold change [2] | log2 fold change (encorafenib) | log2 fold change [3] | log2 fold change (alisertib) | log2 fold change [4] | log2 fold change (gefitinib) |
| --- | --- | --- | --- | --- | --- | --- | --- | --- | --- | --- |
| TAB2 (UniProt Q9NYJ8) | inactive: -0.039 | inactive: -0.026 | inactive: -0.003 | inactive: 0.023 | inactive: 0.011 | inactive: -0.016 | inactive: 0 | inactive: 0.01 | inactive: -0.045 | inactive: 0.093 |
| TAF12 (UniProt Q16514) | inactive: 0.021 | inactive: -0.022 | inactive: -0.027 | inactive: -0.033 | inactive: 0.003 | inactive: 0.076 | inactive: 0.017 | inactive: -0.087 | inactive: 0.05 | inactive: 0.033 |
| STRN3 (UniProt Q13033) | inactive: 0.063 | inactive: 0.036 | inactive: 0.034 | inactive: 0.003 | inactive: -0.05 | inactive: 0.016 | inactive: -0.014 | inactive: -0.045 | inactive: -0.016 | inactive: 0.051 |
| STK11IP (UniProt Q8N1F8) | inactive: 0.013 | inactive: -0.005 | inactive: -0.025 | inactive: 0.041 | inactive: -0.014 | inactive: 0.053 | inactive: 0.062 | inactive: -0.026 | inactive: 0.025 | inactive: 0.069 |
| SUMF2 (UniProt Q8NBJ7) | inactive: -0.015 | inactive: -0.052 | inactive: -0.057 | inactive: 0.009 | inactive: -0.016 | inactive: -0.015 | inactive: 0.053 | inactive: -0.023 | inactive: 0.026 | inactive: 0.056 |
| SZRD1 (UniProt Q7Z422) | inactive: -0.049 | inactive: 0.046 | inactive: 0.02 | inactive: -0.007 | inactive: 0.055 | inactive: -0.024 | inactive: -0.034 | inactive: 0.002 | inactive: 0.004 | inactive: -0.003 |
| STK38 (UniProt Q15208) | inactive: 0.014 | inactive: -0.056 | active: 0.912 | active: 0.502 | inactive: -0.037 | inactive: -0.033 | inactive: 0.056 | inactive: 0.003 | inactive: 0.266 | inactive: 0.005 |
| SUPT5H (UniProt O00267) | inactive: 0.014 | inactive: -0.01 | inactive: 0.019 | inactive: 0.005 | inactive: 0.015 | inactive: 0.003 | inactive: -0.009 | inactive: 0.009 | inactive: 0.002 | inactive: 0.024 |
| STK24 (UniProt B4DR80) | inactive: -0.029 | inactive: 0.02 | inactive: -0.022 | inactive: 0.11 | inactive: -0.008 | inactive: -0.012 | inactive: -0.039 | inactive: -0.037 | inactive: 0.078 | inactive: -0.052 |
| STX7 (UniProt O15400) | inactive: -0.014 | inactive: 0.053 | inactive: 0.005 | inactive: -0.008 | inactive: 0.003 | inactive: 0.008 | inactive: -0.037 | inactive: -0.032 | inactive: 0.01 | inactive: -0.009 |
| SUSD6 (UniProt Q92537) | inactive: 0 |  |  |  |  |  |  |  |  |  |
| SUDS3 (UniProt Q9H7L9) | inactive: 0 | inactive: 0.005 | inactive: 0.006 | inactive: -0.007 | inactive: 0.01 | inactive: 0.022 | inactive: -0.006 | inactive: -0.033 | inactive: -0.012 | inactive: 0.017 |
| SUB1 (UniProt P53999) | inactive: -0.05 | inactive: 0.048 | inactive: -0.011 | inactive: -0.023 | inactive: 0.026 | inactive: 0.014 | inactive: -0.018 | inactive: 0.018 | inactive: 0.01 | inactive: -0.019 |
| TAB1 (UniProt Q15750) | inactive: 0 | inactive: -0.005 | inactive: 0.024 | inactive: -0.003 | inactive: 0 | inactive: -0.007 | inactive: 0.053 | inactive: -0.069 | inactive: -0.003 | inactive: -0.007 |
| SYNJ2BP-COX16, A0A087WYV9 | inactive: 0.109 | inactive: 0.059 | inactive: -0.077 | inactive: 0.048 | inactive: 0.024 | inactive: -0.036 | inactive: -0.043 | inactive: 0.008 | inactive: 0.109 | inactive: -0.065 |
| STX8 (UniProt Q9UNK0) | inactive: 0.015 | inactive: -0.013 | inactive: -0.014 | inactive: 0.069 | inactive: -0.056 | inactive: 0.06 | inactive: -0.035 | inactive: 0.039 | inactive: 0.035 | inactive: 0.042 |
| SUZ12 (UniProt Q15022) | inactive: -0.004 | inactive: -0.012 | inactive: 0.009 | inactive: 0.049 | inactive: 0.027 | inactive: 0 | inactive: 0.101 | inactive: -0.057 | inactive: -0.062 | inactive: 0.062 |
| STK26 (UniProt Q9P289) | inactive: 0.027 | inactive: -0.041 | inactive: 0.003 | inactive: 0.008 | inactive: -0.06 | inactive: 0.001 | inactive: 0.009 | inactive: -0.004 | inactive: 0.022 | inactive: -0.016 |
| SUCLG1 (UniProt P53597) | inactive: 0.051 | inactive: -0.061 | inactive: -0.002 | inactive: 0.001 | inactive: 0.008 | inactive: -0.05 | inactive: 0.108 | inactive: 0.038 | inactive: 0 | inactive: -0.031 |
| TAF4B (UniProt Q92750) | inactive: 0.051 | inactive: 0.099 | inactive: -0.103 | inactive: -0.063 | inactive: -0.006 | inactive: -0.096 | inactive: -0.233 | inactive: -0.032 | inactive: -0.146 | inactive: -0.006 |
| TAF1 isoform 4 (UniProt P21675) | inactive: -0.257 | inactive: -0.079 | inactive: -0.007 | inactive: -0.051 | inactive: -0.034 | inactive: 0 | inactive: 0.133 | inactive: -0.037 | inactive: -0.064 | inactive: -0.04 |
| SYNCRIP (UniProt O60506) | inactive: 0.036 | inactive: -0.027 | inactive: 0.007 | inactive: 0.01 | inactive: 0.027 | inactive: -0.002 | inactive: 0.042 | inactive: 0.022 | inactive: -0.002 | inactive: 0.014 |
| SWAP70 (UniProt Q9UH65) | inactive: -0.079 | inactive: -0.007 | inactive: 0.019 | inactive: -0.011 | inactive: -0.024 | inactive: 0.011 | inactive: 0.003 | inactive: 0.019 | inactive: 0.027 | inactive: 0.026 |
| STX4 (UniProt Q12846) | inactive: -0.032 | inactive: 0.013 | inactive: -0.057 | inactive: 0.01 | inactive: -0.012 | inactive: -0.052 | inactive: -0.014 | inactive: -0.029 | inactive: -0.009 | inactive: -0.01 |
| SUPT6H (UniProt Q7KZ85) | inactive: -0.004 | inactive: -0.065 | inactive: -0.011 | inactive: 0.016 | inactive: 0.026 | inactive: 0.007 | inactive: 0.041 | inactive: -0.021 | inactive: 0.007 | inactive: 0.025 |
| SUMO2 (UniProt P61956) | inactive: -0.051 | inactive: 0.04 | inactive: -0.102 | inactive: 0.016 | inactive: 0.074 | inactive: -0.005 | inactive: -0.132 | inactive: 0 | inactive: 0.025 | inactive: -0.003 |
| TACC3 (UniProt Q9Y6A5) | inactive: -0.019 | inactive: 0.029 | inactive: 0.007 | inactive: 0.019 | inactive: 0.047 | inactive: -0.001 | inactive: -0.054 | inactive: 0.011 | inactive: 0.005 | inactive: 0.02 |
| STX3 (UniProt Q13277) | inactive: 0.006 | inactive: 0.023 | inactive: -0.023 | inactive: 0.026 | inactive: -0.055 | inactive: 0.034 | inactive: -0.032 | inactive: -0.05 | inactive: -0.015 | inactive: 0.013 |
| TADA3 (UniProt O75528) | inactive: 0.001 | inactive: -0.04 | inactive: 0.044 | inactive: -0.007 | inactive: 0.06 | inactive: 0.029 | inactive: -0.024 | inactive: 0 | inactive: 0.001 | inactive: 0.03 |
| STX17 (UniProt P56962) | inactive: 0.018 | inactive: 0.045 | inactive: 0.002 | inactive: -0.025 | inactive: 0.333 | inactive: 0.019 | inactive: -0.013 | inactive: 0.057 | inactive: 0.047 | inactive: -0.034 |

8 entries from above, with bars between the fields:
Target | log2 fold change (alvocidib) | log2 fold change (Tubastatin A) | log2 fold change [1] | log2 fold change (defactinib) | log2 fold change [2] | log2 fold change (encorafenib) | log2 fold change [3] | log2 fold change (alisertib) | log2 fold change [4] | log2 fold change (gefitinib)
SUCLG1 (UniProt P53597) | inactive: 0.051 | inactive: -0.061 | inactive: -0.002 | inactive: 0.001 | inactive: 0.008 | inactive: -0.05 | inactive: 0.108 | inactive: 0.038 | inactive: 0 | inactive: -0.031
TAF4B (UniProt Q92750) | inactive: 0.051 | inactive: 0.099 | inactive: -0.103 | inactive: -0.063 | inactive: -0.006 | inactive: -0.096 | inactive: -0.233 | inactive: -0.032 | inactive: -0.146 | inactive: -0.006
TAF1 isoform 4 (UniProt P21675) | inactive: -0.257 | inactive: -0.079 | inactive: -0.007 | inactive: -0.051 | inactive: -0.034 | inactive: 0 | inactive: 0.133 | inactive: -0.037 | inactive: -0.064 | inactive: -0.04
SYNCRIP (UniProt O60506) | inactive: 0.036 | inactive: -0.027 | inactive: 0.007 | inactive: 0.01 | inactive: 0.027 | inactive: -0.002 | inactive: 0.042 | inactive: 0.022 | inactive: -0.002 | inactive: 0.014
SWAP70 (UniProt Q9UH65) | inactive: -0.079 | inactive: -0.007 | inactive: 0.019 | inactive: -0.011 | inactive: -0.024 | inactive: 0.011 | inactive: 0.003 | inactive: 0.019 | inactive: 0.027 | inactive: 0.026
STX4 (UniProt Q12846) | inactive: -0.032 | inactive: 0.013 | inactive: -0.057 | inactive: 0.01 | inactive: -0.012 | inactive: -0.052 | inactive: -0.014 | inactive: -0.029 | inactive: -0.009 | inactive: -0.01
SUPT6H (UniProt Q7KZ85) | inactive: -0.004 | inactive: -0.065 | inactive: -0.011 | inactive: 0.016 | inactive: 0.026 | inactive: 0.007 | inactive: 0.041 | inactive: -0.021 | inactive: 0.007 | inactive: 0.025
SUMO2 (UniProt P61956) | inactive: -0.051 | inactive: 0.04 | inactive: -0.102 | inactive: 0.016 | inactive: 0.074 | inactive: -0.005 | inactive: -0.132 | inactive: 0 | inactive: 0.025 | inactive: -0.003
